Laboratory results published in patent US11020333B2, “Organic compounds” (Givaudan SA, priority 2016, dated 2021).

What was measured:
[1] = Odor description (olfactory evaluation of the compound); conditions: for Odor description: odor of the isomeric mixture unless otherwise indicated
[2] = Rosy fragrance composition for fine perfumery: olfactory effect of adding the compound, compared to the accord with DPG instead; conditions: 10 parts per 1000 in the accord
Text: EXAMPLE 25: ROSY FRAGRANCE COMPOSITION FOR FINE PERFUMERY
This natural rose, spicy (clove) fresh light and delicate accord with slightly fruity (apple) facets is best to be assessed at 10 weight % in alcohol (85). […] This accord above is, e.g., suitable for fragrancing a softener.

SMILES | Odor description [1] | other results
CC(C)Cc1ccc2c(c1)C(=O)C1(C)CC21 (centres unmarked) [Example 21, 4-isobutyl-6a-methyl-1a,6a-dihydrocyclopropa[a]inden-6(1H)-one] | fatty, fruity, green, floral, with some rubbery facets | –
CCOc1ccc2c(c1)C(=O)C(C)C2 (centres unmarked) [Example 17, 6-ethoxy-2-methyl-2,3-dihydro-1H-inden-1-one] | green, waxy fruity, rosy | –
CCCc1ccc2c(c1)CC(C)C2=O (centres unmarked) [2-methyl-5-propyl-2,3-dihydro-1H-inden-1-one, reference compound] | green, waxy, fatty | –
CCCc1cccc2c1C(=O)C(C)C2 (centres unmarked) [2-methyl-7-propyl-2,3-dihydro-1H-inden-1-one, reference compound] | floral, rose, metallic | –
CC(C)Cc1ccc2c(c1)C(=O)[C@@H](C)C2 [(S)-6-isobutyl-2-methyl-2,3-dihydro-1H-inden-1-one] | – | odor strength of the enantiomers relative to each other ([1]; both enantiomers possess very similar odor profiles): more powerful than (R)-6-isobutyl-2-methyl-2,3-dihydro-1H-inden-1-one
CCC(C)c1ccc2c(c1)C(=O)C(C)C2 (centres unmarked) [Example 15, 6-(SEC-BUTYL)-2-METHYL-2,3-DIHYDRO-1H-INDEN-1-ONE] | green rosy metallic, green leathery, fatty floral | Odor description ([1]; listed as 6-(sec-butyl)methyl-2,3-dihydro-1H-inden-1-one): very powerful ingredient with strong green rosy metallic and green leathery rubbery facets, and an overall fatty fruity floral character
C=C(C)Cc1cccc2c1C(=O)C(C)C2 (centres unmarked) [2-methyl-7-(2-methylallyl)-2,3-dihydro-1H-inden-1-one, reference compound] | green, wax, slightly minty | –
CC1Cc2c(cccc2C2CC2)C1=O (centres unmarked) [Comparison Example 7, 4-cyclopropyl-2-methyl-2,3-dihydro-1H-inden-1-one, reference compound] | weak floral | –
CC(C)Cc1ccc2c(c1)C(=O)C(C)C2 (centres unmarked) [Example 1, 6-isobutyl-2-methyl-2,3-dihydro-1H-inden-1-one] | floral fruity fatty, creamy lactonic like, nectaryl-like, rosy, rose petal, green rose oxide-like | olfactory effect of addition to the rosy accord ([2]; assessed at 10 weight % in alcohol, compared to accord with DPG instead): much more impact accord, and the character is now fruity peach creamy, with a rose floral freshness; long-lastingness of the accord ([2]; compared to accord wherein the compound is replaced by DPG): more long lasting; Odor description ([1]; listed as 6-isobutyl-2-methyl-2,3-dihydro-1H-inden-1-one): very powerful, floral fruity fatty, with creamy lactonic nectaryl like facet, and a rosy floral character with rose petal like and green rose oxide like facets
C=C(C)Cc1ccc2c(c1)C(=O)C(C)C2 (centres unmarked) [Example 22, 2-methyl-6-(2-methylallyl)-2,3-dihydro-1H-inden-1-one] | fatty, fruity, green, floral, cinnamic cinnamate like | –
CC(C)CCc1ccc2c(c1)C(=O)C(C)C2 (centres unmarked) [Example 16, 6-isopentyl-2-methyl-2,3-dihydro-1H-inden-1-one] | green rosy, fatty lactonic, rosy powdery, cinnamate like | –
CCC1Cc2ccc(CC(C)C)cc2C1=O (centres unmarked) [Example 13, 2-ethyl-6-isobutyl-2,3-dihydro-1H-inden-1-one] | floral fatty green, oily cinnamic, nectaryl | –
CCCc1cccc2c1CC(C)C2=O (centres unmarked) [Comparison Example 3, 2-methyl-4-propyl-2,3-dihydro-1H-inden-1-one, reference compound] | very weak, fruity, floral | –
CCCc1ccc2c(c1)C(=O)C(C)C2C (centres unmarked) [Example 6, 2,3-dimethyl-6-propyl-2,3-dihydro-1H-inden-1-one] | green fatty oily, fatty fruity lactonic, metallic rosy | –
CC(C)Cc1ccc2c(c1)C(=O)CC2C (centres unmarked) [Example 8, 6-isobutyl-3-methyl-2,3-dihydro-1H-inden-1-one] | green rosy, fatty, metallic rosy, fatty fruity floral | –
C=C(C)Cc1cccc2c1CC(C)C2=O (centres unmarked) [Comparison Example 5, 2-methyl-4-(2-methylallyl)-2,3-dihydro-1H-inden-1-one, reference compound] | fruity floral metallic, myradyl-like | –
C=C(C)Cc1ccc2c(c1)CC(C)C2=O (centres unmarked) [2-methyl-5-(2-methylallyl)-2,3-dihydro-1H-inden-1-one, reference compound] | fatty fruity citrus floral, “citral myraldyl”-like, soapy | –

SMILES | Odor description [1] | other results
CC(C)Cc1ccc2c(c1)C(=O)C(C)(C)C2 [Example 9, 6-isobutyl-2,2-dimethyl-2,3-dihydro-1H-inden-1-one] | floral fatty, fruity, green, rubbery, muguet | –
CCCCc1ccc2c(c1)C(=O)C(C)C2 (centres unmarked) [Example 23, 6-butyl-2-methyl-2,3-dihydro-1H-inden-1-one] | green fatty floral: rosy, peach, green rubbery slightly leathery isobutyl salicylate | –
CC1Cc2cccc(C3CC3)c2C1=O (centres unmarked) [7-cyclopropyl-2-methyl-2,3-dihydro-1H-inden-1-one, reference compound] | green, floral, leathery | –
CC1Cc2ccc(C3CCCC3)cc2C1=O (centres unmarked) [Example 12, 6-cyclopentyl-2-methyl-2,3-dihydro-1H-inden-1-one] | fruity fatty floral, peachy, green rosy | –
CC(C)Oc1ccc2c(c1)C(=O)C(C)C2 (centres unmarked) [Example 18, 6-isopropoxy-2-methyl-2,3-dihydro-1H-inden-1-one] | green rosy fatty floral, slightly fatty fruity, metallic rosy | –
CC1Cc2ccc(C(C)C)cc2C1=O (centres unmarked) [Example 4, 6-isopropyl-2-methyl-2,3-dihydro-1H-inden-1-one] | green fatty, lactonic fruity, rosy metallic | –
CC(C)Cc1ccc2c(c1)CC(C)C2=O (centres unmarked) [Comparison Example 1, 5-isobutyl-2-methyl-2,3-dihydro-1H-inden-1-one, reference compound] | fruity fatty citrus green, fruity citral green, soapy | –
CCCc1ccc2c(c1)C(=O)C(C)C2 (centres unmarked) [Example 7, 2-methyl-6-propyl-2,3-dihydro-1H-inden-1-one] | green, floral, fatty, rosy cinnamic | –
CC(C)COc1ccc2c(c1)C(=O)C(C)C2 (centres unmarked) [Example 20, 6-isobutoxy-2-methyl-2,3-dihydro-1H-inden-1-one] | floral fruity fatty, green anisic | –
CCCc1ccc2c(c1)C(=O)CC2C (centres unmarked) [Example 2, 3-methyl-6-propyl-2,3-dihydro-1H-inden-1-one] | green, floral, minty, jasmone, jasmine, camonal | –
CCc1ccc2c(c1)C(=O)C(C)C2 (centres unmarked) [Example 14, 6-ethyl-2-methyl-2,3-dihydro-1H-inden-1-one] | green minty floral, carvone jasmine fruity | –
CC1Cc2cc(C3CC3)ccc2C1=O (centres unmarked) [5-cyclopropyl-2-methyl-2,3-dihydro-1H-inden-1-one, reference compound] | green, creamy, lactonic | –
CC1Cc2ccc(C(C)(C)C)cc2C1=O (centres unmarked) [Example 5, 6-(tert-butyl)-2-methyl-2,3-dihydro-1H-inden-1-one] | green fatty, lactonic fruity, slightly fatty cinnamic | –
CCCOc1ccc2c(c1)C(=O)C(C)C2 (centres unmarked) [Example 19, 2-methyl-6-propoxy-2,3-dihydro-1H-inden-1-one] | waxy, fatty fruity, green floral | –
CC1Cc2ccc(C3CC3)cc2C1=O (centres unmarked) [Example 11, 6-cyclopropyl-2-methyl-2,3-dihydro-1H-inden-1-one] | green, fatty, floral, rosy metallic | –
CC(C)Cc1ccc2c(c1)C(=O)CC2 [Example 3, 6-isobutyl-2,3-dihydro-1H-inden-1-one] | green floral, isobutyl benzoate | –
CC1CC(=O)c2cc(C(C)(C)C)ccc21 (centres unmarked) [Example 10, 6-(tert-butyl)-3-methyl-2,3-dihydro-1H-inden-1-one] | fruity, floral | –
